# Test results published in the supplement of paper PMC8166895.
# Counter-ions that a name gives are not always drawn. The list shows a part of the results. Most values lie at the level of the controls, where differences are scatter.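 Differential scanning fluorimetry gave melting temperatures in a one-replicate pilot screen of a library of approved drugs plus clinical or known-target compounds. Hits increasing melting point at least 2 °C were the strongest stabilizers, while negative shifts signify destabilization.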
# System: SARS-CoV-2 main protease (Mpro, nsp5)
# Assay: thermal shift ΔTm of Mpro relative to plate average Tm; higher = stronger thermal stabilization of Mpro (binding)
# Details: 10 µM; protein concentration 1 µM
row,Compound,thermal shift ΔTm of Mpro [°C]
1,COc1ccc(-c2cc(=O)c3c(OC)c(OC)c(OC)c(OC)c3o2)cc1 [Tangeretin],-0.105
2,CC(C)=CCC[C@](C)(O[C@@H]1O[C@H](CO[C@@H]2OC[C@@H](O)[C@H](O)[C@H]2O)[C@@H](O)[C@H](O)[C@H]1O)[C@H]1CC[C@]2(C)[C@@H]1[C@H](O)C[C@@H]1[C@@]3(C)CC[C@H](O[C@@H]4O[C@H](CO)[C@@H](O)[C@H](O)[C@H]4O)C(C)(C)[C@@H]3CC[C@]12C [Gynostemma Extract],-0.467
3,O=C(O)c1ccc(C=C2SC(=S)N(c3cccc(C(F)(F)F)c3)C2=O)cc1,0.357
4,CC(C)c1nc(CN(C)C(=O)N[C@@H](CCN2CCOCC2)C(=O)N[C@H](CC[C@H](Cc2ccccc2)NC(=O)OCc2cncs2)Cc2ccccc2)cs1 [Cobicistat (GS-9350)],-0.144
5,CN1CCC(c2c[nH]c3ccc(NC(=O)c4ccc(F)cc4)cc23)CC1,0.0329
6,CC(=O)SCC(CC(=O)c1ccc(C)cc1)C(=O)O (stereo unspecified) [Esonarimod],-0.215
7,Cc1cccc(-c2nn3c(c2-c2ccnc4ccc(C(N)=O)cc24)CCC3)n1,-0.0948
8,O=c1n(Cl)c(=O)n(Cl)c(=O)n1Cl [Trichloroisocyanuric acid],-0.103
9,O=C(Nc1cccnc1)N1CCC(Cc2cccc(Oc3ccc(C(F)(F)F)cn3)c2)CC1,0.0311
10,NC[C@H]1OB(O)c2c(OCCCO)cccc21 [Epetraborole hydrochloride],0.12
11,NC(=O)c1cc(N2CC2)c([N+](=O)[O-])cc1[N+](=O)[O-] [Tretazicar],-0.0205
12,Cc1cc(C)nc(NS(=O)(=O)c2ccc(NC(=S)NC(=O)COc3ccc(Br)cc3Cl)cc2)n1,0.197
13,Cn1cc(C2=C(c3cn(C4CCN(Cc5ccccn5)CC4)c4ccccc34)C(=O)NC2=O)c2ccccc21,-0.04
14,CCOc1ccc(Cc2nccc3cc(OCC)c(OCC)cc23)cc1OCC [Ethaverine hydrochloride],0.163
15,C[C@@H]1CC[C@@]2(OC1)O[C@H]1C[C@H]3[C@@H]4CC=C5C[C@@H](O[C@@H]6O[C@H](CO)[C@@H](O[C@@H]7O[C@@H](C)[C@H](O)[C@@H](O)[C@H]7O)[C@H](O)[C@H]6O[C@@H]6O[C@@H](C)[C@H](O)[C@@H](O)[C@H]6O)CC[C@]5(C)[C@H]4CC[C@]3(C)[C@H]1[C@@H]2C [Dioscin],-0.176
16,O=C1C=CC(=O)C(c2cc(Cl)ccc2Cl)=C1,-4.93
17,C=CCN1CC[C@]23c4c5ccc(O)c4O[C@H]2C(=O)CC[C@@]3(O)[C@H]1C5 [Naloxone HCl Dihydrate],0.00115
18,C=CCN1CC[C@]23c4c5ccc(O)c4O[C@H]2C(=O)CC[C@@]3(O)[C@H]1C5 [Naloxone HCl],0.232

# Single entries from the results shown.
# thermal shift ΔTm of Mpro [°C], O=C(Nc1cccnc1)N1CCC(Cc2cccc(Oc3ccc(C(F)(F)F)cn3)c2)CC1 reads 0.0311
# thermal shift ΔTm of Mpro [°C], COc1ccc(-c2cc(=O)c3c(OC)c(OC)c(OC)c(OC)c3o2)cc1 [Tangeretin] reads -0.105
# thermal shift ΔTm of Mpro [°C], CC(=O)SCC(CC(=O)c1ccc(C)cc1)C(=O)O (stereo unspecified) [Esonarimod] reads -0.215

# Going on with the list.

row,Compound,thermal shift ΔTm of Mpro [°C]
1,O=C(NCc1ccc(S(=O)(=O)c2cc(F)cc(F)c2)cc1)c1ccc2nccn2c1,-0.219
2,O=c1cc[nH]c(=O)[nH]1 [Uracil],0.00232
3,Cc1noc(-c2ccc(CSCCC(=O)O)cc2)c1NC(=O)OC(C)c1ccccc1Cl (stereo unspecified),0.196
4,CCOC(=O)N1c2ccc(C(F)(F)F)cc2[C@@H](N(Cc2cc(C(F)(F)F)cc(C(F)(F)F)c2)C(=O)OC)C[C@H]1CC [Torcetrapib],-0.0358
5,NC(=O)C(c1ccccc1)(c1ccc(F)cc1)c1ccc(F)cc1 [Senicapoc],-0.133
6,Cc1ccc(C(=O)Nc2cccc(C(F)(F)F)c2)cc1Nc1nc(-c2cccnc2)nc2c1cnn2C,0.267
7,COc1ccc(-c2cc(=O)c3c(OC)c(OC)c(OC)c(OC)c3o2)cc1OC [Nobiletin],-0.168
8,N#Cc1c(Oc2ccc(F)c(NC(=O)Cc3cccc(C(F)(F)F)c3)c2)ccc2nc(NC(=O)C3CC3)sc12,0.951
9,CCC[C@@H]1C[C@@H](C(=O)N[C@@H]([C@H]2O[C@H](SC)[C@H](O)[C@@H](O)[C@H]2O)[C@@H](C)O)N(C)C1 [Lincomycin HCl],-0.049
10,CCC[C@@H]1C[C@@H](C(=O)N[C@@H]([C@H]2O[C@H](SC)[C@H](O)[C@@H](O)[C@H]2O)[C@@H](C)O)N(C)C1 [Lincomycin hydrochloride monohydrate],-0.0776
11,O=C1N=c2ccccc2=C1c1c(O)[nH]c2ccccc12 [Isoindigotin],-0.0562
12,CCc1nc2c(C)cc(N3CCN(CC(=O)N4CC(O)C4)CC3)cn2c1N(C)c1nc(-c2ccc(F)cc2)c(C#N)s1,-0.116
13,CN1CCCN=C1/C=C/c1cccs1 [Pyrantel pamoate],0.0077
14,CN1CCCN=C1/C=C/c1cccs1 [Pyrantel tartrate],0.0663
15,CO[C@H]1C[C@@H]2CC[C@@H](C)[C@@](O)(O2)C(=O)C(=O)N2CCCC[C@H]2C(=O)O[C@H]([C@H](C)C[C@@H]2CC[C@@H](OC(=O)C(C)(CO)CO)[C@H](OC)C2)CC(=O)[C@H](C)/C=C(\C)[C@@H](O)[C@@H](OC)C(=O)[C@H](C)C[C@H](C)/C=C/C=C/C=C/1C,-0.209
16,Cc1ccc(Nc2nccc(N(C)c3ccc4c(C)n(C)nc4c3)n2)cc1S(N)(=O)=O [Pazopanib],-0.0947
17,Cc1ccc(Nc2nccc(N(C)c3ccc4c(C)n(C)nc4c3)n2)cc1S(N)(=O)=O [Pazopanib HCl],-0.183
18,CCc1ccc(/C=C2/SC(=S)NC2=O)cc1,0.421
